Experimental data: US8614176B2, “Peptide vaccines for lung cancers expressing TTK, URLC10 or KOC1 polypeptides” (OncoTherapy Science, Inc., priority 2005, dated 2013)
“Also recorded” adds a separate entry of the source. Not every detail of the peptide structures is certain; ends, links or a residue may be inferred. Some compounds share one wording; it may come from a single statement. Where a SMILES comes first, the peptide text is derived from it.

Legend:
TE1 cells = assay: Antibody blocking assay of CTL cytotoxicity; assay type: cell-based, human; conditions: TE1 target cells
CD8+ T cells = assay: In vitro CTL induction with peptide-pulsed dendritic cells; assay type: cell-based, human

SMILES | CTL activity on addition of antibodies that recognize HLA Class I or CD8 (TE1 cells) | CTL activity on addition of isotype-matched control antibody (TE1 cells) | CTL activity on addition of antibodies to HLA Class II or CD4 (TE1 cells; listed as TTK-567) | CTL inducibility (CD8+ T cells) | CTL activity on addition of antibodies to HLA Class II or CD4 (TE1 cells; listed as KOC1-508) | CTL activity on addition of antibodies to HLA Class II or CD4 (TE1 cells; listed as URLC10-177)
CC[C@H](C)[C@H](NC(=O)[C@H](CCC(=O)O)NC(=O)[C@H](CC(N)=O)NC(=O)[C@H](CCCNC(=N)N)NC(=O)[C@H](Cc1ccc(O)cc1)NC(=O)[C@@H](N)CO)C(=O)N[C@@H](C)C(=O)N[C@@H](Cc1ccc(O)cc1)C(=O)N[C@@H](CC(C)C)C(=O)O [SEQ ID No. 8, SYRNEIAYL] (H-SYRNEIAYL-OH) | clearly blocked | not inhibited at all | affected little; also recorded: marginally affected | particularly high CTL inducibility |  | 
CC(C)C[C@H](NC(=O)[C@H](CC(N)=O)NC(=O)[C@H](CCC(N)=O)NC(=O)[C@H](CC(C)C)NC(=O)[C@H](CCC(=O)O)NC(=O)[C@H](CC(N)=O)NC(=O)[C@@H](NC(=O)[C@@H](NC(=O)[C@@H](N)CCCCN)[C@@H](C)O)C(C)C)C(=O)O [SEQ ID No. 89, KTVNELQNL] (H-KTVNELQNL-OH) | clearly blocked | not inhibited at all |  | particularly high CTL inducibility | affected little; also recorded: marginally affected | 
CC[C@H](C)[C@H](NC(=O)[C@@H]1CCCN1C(=O)[C@@H]1CCCN1C(=O)CNC(=O)[C@H](CCC(=O)O)NC(=O)[C@H](CC(C)C)NC(=O)[C@H](CC(N)=O)NC(=O)[C@H](CS)NC(=O)[C@H](Cc1ccc(O)cc1)NC(=O)[C@@H](N)CCCNC(=N)N)C(=O)O [SEQ ID No. 67, RYCNLEGPPI] (H-RYCNLEGPPI-OH) | clearly blocked | not inhibited at all |  | particularly high CTL inducibility |  | affected little; also recorded: marginally affected
